In all, about 300,000 compounds went through this assay and about 5,400 (1.8%) were called active. The inconclusive results got no clear call from the source; some entries with a clear call stand among them for comparison. The call rests on the fitted dose curve; tested in HEK293 cells. Potencies beside an inconclusive call are fits to weak or partial responses and may not hold up.
assay: qHTS for inhibitors of binding or entry into cells for Marburg Virus; details: Marburg virus pseudotyped entry inhibition, cell reporter; activity change, negative = inhibition: at 37.8 µM (top of the series) unless noted
On the % scale 0 is the no-effect control and ±100 the full control effect; potency means the concentration at half of the fitted maximal effect.

| SMILES | Potency | activity change, negative = inhibition |
| --- | --- | --- |
| CCOC(=O)C1=C(C)NC(=O)NC1c1cc(Br)c(O)c(OC)c1 (stereo unspecified) | inactive | – |
| Cc1cc2cc(CCNC(=O)c3cccs3)c(=O)[nH]c2cc1C | – | inactive: -5.61% |
| COc1cc(NC(=O)CSc2nc(C)cs2)cc(OC)c1 | inconclusive: 18.3 µM [inhibitor, single point] | – |
| CCc1nnc(NS(=O)(=O)c2ccc(Nc3ccc4nonc4c3[N+](=O)[O-])cc2)s1 | – | inactive: -0.0593% [at 46.1 µM] |
| Cc1ccc(NC(=S)N(CCCN2CCC(C)CC2)Cc2ccco2)cc1C | inconclusive: 3.55 µM [inhibitor, full curve, poor fit] | – |
| Cc1ncc(CO)c(CNc2ccc(Oc3ccccc3)cc2)c1O | – | inactive: -26.5% [at 46.1 µM] |
| COC(=O)COc1ccc(S(=O)(=O)Nc2ccc3c(c2)OCCO3)cc1C | – | inactive: 3.42% [at 46.1 µM] |
| CCN(CC)c1nc(N2CCOCC2)c(C#N)c2c1CN(C)CC2 | – | inactive: 4.36% |
| N#Cc1cnn(Cc2ccc(Cl)cc2)c1N | inconclusive: 0.58 µM [activator, single point] | – |
| CC(=O)c1c(C)[nH]c(C(=O)N2CCc3ccccc32)c1C | – | inactive: -0.277% |
| COc1ccc(C(C(=O)NC(C)(C)C)N(C(=O)CCC(=O)Nc2cc(C)on2)c2ccc(C)c(C)c2)cc1 (stereo unspecified) | inconclusive: 35.5 µM [inhibitor, single point] | – |
| CCOC(=O)c1sc(=NC(=O)c2cc(OC)c(OC)c(OC)c2)n(C)c1C | – | inactive: 4.79% |
| O=C(Nc1cccc(Cl)c1)Nc1csc([N+](=O)[O-])c1 | inconclusive: 12.6 µM [inhibitor, partial curve, poor fit] | – |
| CC1=NC(Nc2nc(C)c3ccccc3n2)=NC(C)(C)C1 | inconclusive: 18.3 µM [inhibitor, single point] | – |
| O=C(CCCN1C(=O)c2cccc3cccc(c23)C1=O)N1CCN(c2ccccc2)CC1 | – | inactive: 7.78% |
| C=C(C)C1CC=C(C)/C(=N/NC(=O)COc2ccc(C)cc2)C1 (stereo unspecified) | inconclusive: 29.1 µM [inhibitor, single point] | – |
| CCOc1ccc(NC(=S)NC(C)C(c2ccccc2)N2CCN(C)CC2)cc1 (stereo unspecified) | inconclusive: 14.1 µM [inhibitor, single point] | – |
| CCOc1cc(C)cc2oc(=O)cc(-c3ccccc3)c12 | inconclusive: 29.1 µM [inhibitor, single point] | – |
| Cc1sc(-c2ccncc2)nc1OC(=O)c1ccccc1 | inconclusive: 1.58 µM [activator, full curve, poor fit] | – |
| COc1ccc([N+](=O)[O-])cc1NCc1cccnc1 | inconclusive: 5.62 µM [activator, single point] | – |
| O=C(NC(=S)N1CCc2ccccc21)c1ccc(Br)o1 | inconclusive: 6.31 µM [activator, single point] | – |
| O=S(=O)(Cc1ccccc1)N=Nc1c(O)[nH]c2ccc(Br)cc12 | inconclusive: 3.16 µM [inhibitor, partial curve, poor fit] | – |

Four entries from above, reformatted:
Cc1ccc(NC(=S)N(CCCN2CCC(C)CC2)Cc2ccco2)cc1C
  Potency: inconclusive: 3.55 µM [inhibitor, full curve, poor fit]
CC1=NC(Nc2nc(C)c3ccccc3n2)=NC(C)(C)C1
  Potency: inconclusive: 18.3 µM [inhibitor, single point]
CCOc1cc(C)cc2oc(=O)cc(-c3ccccc3)c12
  Potency: inconclusive: 29.1 µM [inhibitor, single point]
O=C(NC(=S)N1CCc2ccccc21)c1ccc(Br)o1
  Potency: inconclusive: 6.31 µM [activator, single point]

Further entries follow:

| SMILES | Potency | activity change, negative = inhibition |
| --- | --- | --- |
| Cn1c(=O)[nH]c(=O)c2c1nc(N1CCNCC1)n2Cc1ccccc1 | inconclusive: 6.31 µM [inhibitor, single point] | – |
| O=C(Nc1ccc(CN2CCOCC2)cc1)c1ccc(-c2ccc(Br)cc2)o1 | inconclusive: 20.6 µM [inhibitor, single point] | – |
| COc1ccc(NC(=S)Nc2ccccn2)c(OC)c1 | – | inactive: 0.106% |
| COc1ccc(CSCC(=O)N/N=C/c2ccccc2O)cc1 | inconclusive: 10 µM [inhibitor, partial curve, poor fit] | – |
| C/C(=N/OC(=O)c1c(-c2ccccc2Cl)noc1C)c1cnccn1 | – | inactive: -12% [at 46.1 µM] |
| CC(C)c1ccc(CC(NC(=O)c2ccccc2)C(=O)NCC(=O)O)cc1 (stereo unspecified) | inconclusive: 5.62 µM [activator, single point] | – |
| O=[N+]([O-])c1cccc(-c2n[nH]c(=S)n2-c2ccc(Br)cc2)c1 | – | inactive: -1.23% [at 46.1 µM] |
| Cc1cccc(NC(=S)NNC(=O)c2ccc3c(c2)OCO3)c1 | inconclusive: 0.794 µM [activator, full curve] | – |
| N#Cc1ccccc1Sc1ccccc1C(=O)OCC(=O)NC12CC3CC(CC(C3)C1)C2 | inconclusive: 11.2 µM [inhibitor, single point] | – |
| COc1ccc(-n2c(O)c(C=NCCN3CCN(C(C)=O)CC3)c(=O)[nH]c2=S)cc1 | inconclusive: 35.5 µM [activator, single point] | – |
| COc1ccc(C(=O)/C=C/C(=O)N(CC(=O)NC2CCCCC2)Cc2ccccc2)c(O)c1 | inconclusive: 2 µM [inhibitor, partial curve, poor fit] | – |
| COc1cc(/C=N/NC(=S)Nc2cccc(S(=O)(=O)N(C)C)c2)ccc1O | inconclusive: 14.1 µM [activator, partial curve, poor fit] | – |
| CC(C)CNc1c2c(nc3ccccc13)CCC2 | inconclusive: 22.4 µM [inhibitor, partial curve, poor fit] | – |
| CC1CCC(NC(=O)CN(C)S(=O)(=O)c2ccc3c(c2)CCC(=O)N3)CC1 (stereo unspecified) | – | inactive: 2.12% [at 46.1 µM] |
| COCCn1cnc2c1c(=O)n(Cc1ccc(C#N)cc1)c(=O)n2Cc1ccccc1 | inconclusive: 4.47 µM [inhibitor, full curve, poor fit] | – |
| CC1CCCCN1Cc1ccc(-c2nnn(CC(=O)NC3CCCCC3)n2)cc1 (stereo unspecified) | inconclusive: 14.1 µM [activator, partial curve, poor fit] | – |
| CCOc1ccc(NC(=O)Cn2cc(C(C)=O)c3ccccc32)cc1 | inconclusive: 1.78 µM [inhibitor, partial curve, poor fit] | – |
| Cc1cccc(C(=O)OCC(=O)NC(=O)c2ccccc2)c1O | – | inactive: -11.4% |
| COC(=O)c1cc2oc(C)cc2n1CC(=O)Nc1cc(Cl)ccc1OC | inconclusive: 10 µM [inhibitor, partial curve, poor fit] | – |
| CCOC(=O)C1CCCN(c2ccc(NC(=O)c3snc4c(=O)[nH]c(C)nc34)cc2)C1 (stereo unspecified) | inconclusive: 7.3 µM [inhibitor, partial curve] | – |
| COc1ccccc1NC(=S)N(Cc1ccco1)Cc1cc2ccc(C)c(C)c2[nH]c1=O | active: 11.2 µM | – |
| CC1CCc2c(sc(/N=C/N(C)C)c2C#N)C1 (stereo unspecified) | inconclusive: 11.2 µM [inhibitor, single point] | – |

Reprinted at random: 2 entries already listed

| SMILES | Potency | activity change, negative = inhibition |
| --- | --- | --- |
| COC(=O)c1cc2oc(C)cc2n1CC(=O)Nc1cc(Cl)ccc1OC | inconclusive: 10 µM [inhibitor, partial curve, poor fit] | – |
| O=C(Nc1ccc(CN2CCOCC2)cc1)c1ccc(-c2ccc(Br)cc2)o1 | inconclusive: 20.6 µM [inhibitor, single point] | – |

Remaining list, next part

| SMILES | Potency | activity change, negative = inhibition |
| --- | --- | --- |
| N#C[C@H](C(=O)NC1CC1)c1nc2ccccc2nc1N1CCN(C/C=C\c2ccccc2)CC1 | – | inactive: 0% |
| CCOC(=O)C(C)n1nc(C)c2sc3ccccc3c2c1=O (stereo unspecified) | – | inactive: -1.66% |
| O=C(CSc1nc2cc(Cl)ccc2c(=O)n1Cc1ccco1)Nc1ccc(S(=O)(=O)N2CCOCC2)cc1 | inconclusive: 6.31 µM [inhibitor, full curve, poor fit] | – |
| Cc1cc(C(=O)N/N=C/c2cc([N+](=O)[O-])ccc2O)c2ccccc2n1 | inconclusive: 10 µM [inhibitor, partial curve, poor fit] | – |
| NC(=O)c1ccccc1NC(=O)Cn1nc(Cc2cccnc2)c2ccccc2c1=O | inconclusive: 35.5 µM [inhibitor, single point] | – |
| COc1cc(N(C)C)ccc1C=c1c2ccccc2n2c1cc(-c1ccccc1)[n+]2C | inconclusive: 10 µM [inhibitor, partial curve, poor fit] | – |
| O=C(c1ccco1)c1cc2c(ccc3ccccc32)oc1=O | inconclusive: 3.66 µM [activator, single point] | – |
| O=C(Nc1sc2c(c1C(=O)O)CCCCC2)c1ccccc1F | inconclusive: 6.31 µM [inhibitor, partial curve, poor fit] | – |
| COc1ccc(OC)c(-n2c(O)c(C=Nc3c(C)n(C)n(-c4ccccc4)c3=O)c(=O)[nH]c2=S)c1 | inconclusive: 3.16 µM [inhibitor, single point] | – |
| Cn1cc(S(=O)(=O)NCc2ccc3c(c2)OCO3)c(C(F)(F)F)n1 | – | inactive: 15% [at 46.1 µM] |
| CC(=O)Nc1ccc(S(=O)(=O)N(C)CC(=O)OCC(=O)N(C)C2CCS(=O)(=O)C2)cc1 (stereo unspecified) | inconclusive: 1.12 µM [activator, partial curve, poor fit] | – |
| O=C(Nc1ccc(Cl)c(-c2nc3ccccc3[nH]2)c1)c1ccc2c(c1)OCO2 | inconclusive: 20.6 µM [inhibitor, partial curve, poor fit] | – |
| COc1cccc(-c2nc(CS(=O)(=O)CC(=O)Nc3ccccc3Br)c(C)o2)c1 | inconclusive: 2.51 µM [inhibitor, partial curve, poor fit] | – |
| Cc1cc(NCCN2CCOCC2)n2ncc(-c3ccccc3)c2n1 | inconclusive: 17.8 µM [inhibitor, single point] | – |
| Cn1c(CN2CCCC2)nc2cc(NC(=O)COc3ccc(Cl)cc3)ccc21 | inconclusive: 11.6 µM [inhibitor, partial curve, poor fit] | – |
| CCOc1ccc(CCNC(=O)CCOc2cc(C)ccc2C)cc1OCC | inconclusive: 14.1 µM [inhibitor, single point] | – |
| O=C(COC(=O)c1c(F)cccc1Cl)NCC1CCCCC1 | inconclusive: 1.58 µM [activator, partial curve] | – |
| O=C(CSc1nc2ccccc2c(=O)n1CCCN1CCOCC1)N1CCN(c2ccccc2)CC1 | inconclusive: 12.6 µM [inhibitor, partial curve, poor fit] | – |
| CN=C(Nc1cc(Cl)ccc1Cl)SC1CC(=O)N(c2ccc(C(=O)OC)cc2)C1=O (stereo unspecified) | – | inactive: -19.1% |
| Cc1cc(NC(=O)c2ccco2)ncc1NC(=O)Cc1ccccc1 | – | inactive: 11.4% |
| Cc1cc2ccccn2c1C(=S)NC(=O)c1ccccc1 | inconclusive: 4.47 µM [activator, full curve, poor fit] | – |
| CCN1CCN(c2cc3nc(C)n(Cc4ccccc4)c(=O)c3cc2NC(=O)c2ccccc2F)CC1 | inconclusive: 5.01 µM [inhibitor, full curve, poor fit] | – |

— PubChem BioAssay AID540276 (National Center for Advancing Translational Sciences (NCATS), 2011)
